Among the data in the supplement of paper PMC12819154, “High-throughput peptide-centric local stability assay extends protein–ligand identification to membrane proteins, tissues and bacteria” (Nature Structural & Molecular Biology, 2025) are log2 fold change values, retold here.

Protein sequences, listed by entry. Tags and fused reporters are not part of them. Lines headed by an entry give the natural chain unless they say otherwise; changes in a name come on top.
UniProt Q6NS59: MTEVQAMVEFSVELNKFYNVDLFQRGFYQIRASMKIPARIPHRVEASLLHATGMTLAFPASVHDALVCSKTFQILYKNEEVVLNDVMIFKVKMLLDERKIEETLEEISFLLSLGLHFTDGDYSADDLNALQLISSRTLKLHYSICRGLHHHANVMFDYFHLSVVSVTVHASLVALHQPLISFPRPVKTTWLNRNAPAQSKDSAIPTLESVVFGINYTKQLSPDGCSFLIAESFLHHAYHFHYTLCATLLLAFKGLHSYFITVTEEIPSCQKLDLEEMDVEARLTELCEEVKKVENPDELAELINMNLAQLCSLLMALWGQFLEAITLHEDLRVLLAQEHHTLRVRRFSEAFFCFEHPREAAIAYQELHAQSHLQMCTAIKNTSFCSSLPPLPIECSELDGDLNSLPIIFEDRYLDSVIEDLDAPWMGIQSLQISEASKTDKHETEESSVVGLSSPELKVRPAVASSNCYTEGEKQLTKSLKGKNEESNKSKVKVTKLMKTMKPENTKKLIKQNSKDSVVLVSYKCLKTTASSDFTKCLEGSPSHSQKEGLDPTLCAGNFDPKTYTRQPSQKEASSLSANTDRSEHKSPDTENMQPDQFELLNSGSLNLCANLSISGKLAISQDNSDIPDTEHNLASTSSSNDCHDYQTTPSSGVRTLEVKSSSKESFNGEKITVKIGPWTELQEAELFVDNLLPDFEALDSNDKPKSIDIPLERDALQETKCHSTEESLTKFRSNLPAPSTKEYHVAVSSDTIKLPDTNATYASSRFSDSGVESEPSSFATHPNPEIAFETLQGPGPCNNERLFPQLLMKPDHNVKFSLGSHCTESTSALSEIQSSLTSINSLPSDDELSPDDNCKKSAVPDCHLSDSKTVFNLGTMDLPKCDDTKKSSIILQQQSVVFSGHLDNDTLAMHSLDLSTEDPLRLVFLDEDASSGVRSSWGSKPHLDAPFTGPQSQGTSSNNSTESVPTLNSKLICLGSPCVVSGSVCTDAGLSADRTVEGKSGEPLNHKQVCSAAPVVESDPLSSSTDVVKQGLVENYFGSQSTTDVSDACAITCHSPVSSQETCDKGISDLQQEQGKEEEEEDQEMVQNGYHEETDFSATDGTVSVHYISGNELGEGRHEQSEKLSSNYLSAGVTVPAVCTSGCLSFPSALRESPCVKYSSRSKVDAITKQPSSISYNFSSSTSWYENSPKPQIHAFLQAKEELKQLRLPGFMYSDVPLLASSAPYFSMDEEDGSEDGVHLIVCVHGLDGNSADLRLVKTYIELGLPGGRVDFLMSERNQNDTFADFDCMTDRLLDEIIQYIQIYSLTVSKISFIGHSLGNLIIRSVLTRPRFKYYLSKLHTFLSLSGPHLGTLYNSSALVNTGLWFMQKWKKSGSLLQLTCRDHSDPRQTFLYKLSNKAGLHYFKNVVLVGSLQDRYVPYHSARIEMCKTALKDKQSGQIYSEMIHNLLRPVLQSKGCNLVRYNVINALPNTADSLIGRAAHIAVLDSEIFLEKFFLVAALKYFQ
UniProt Q6P3D0: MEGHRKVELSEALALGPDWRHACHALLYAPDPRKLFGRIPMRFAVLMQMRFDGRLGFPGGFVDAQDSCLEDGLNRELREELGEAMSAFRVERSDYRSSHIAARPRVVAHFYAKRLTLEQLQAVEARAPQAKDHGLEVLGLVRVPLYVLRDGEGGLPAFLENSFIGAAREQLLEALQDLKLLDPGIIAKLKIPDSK
UniProt Q6PD21: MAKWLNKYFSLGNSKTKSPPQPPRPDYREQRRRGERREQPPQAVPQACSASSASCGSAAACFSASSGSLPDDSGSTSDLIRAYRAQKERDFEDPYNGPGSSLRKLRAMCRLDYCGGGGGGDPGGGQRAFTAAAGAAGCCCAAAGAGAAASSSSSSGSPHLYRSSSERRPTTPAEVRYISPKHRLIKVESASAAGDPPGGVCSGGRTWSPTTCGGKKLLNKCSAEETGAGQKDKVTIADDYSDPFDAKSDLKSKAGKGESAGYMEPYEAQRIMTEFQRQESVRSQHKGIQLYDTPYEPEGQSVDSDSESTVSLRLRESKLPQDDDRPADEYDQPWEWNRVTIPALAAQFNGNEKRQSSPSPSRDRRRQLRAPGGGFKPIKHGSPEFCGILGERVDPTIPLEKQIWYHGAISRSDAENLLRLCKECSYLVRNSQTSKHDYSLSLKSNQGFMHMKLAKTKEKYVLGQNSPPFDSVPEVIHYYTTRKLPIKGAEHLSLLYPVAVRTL
UniProt Q6P073: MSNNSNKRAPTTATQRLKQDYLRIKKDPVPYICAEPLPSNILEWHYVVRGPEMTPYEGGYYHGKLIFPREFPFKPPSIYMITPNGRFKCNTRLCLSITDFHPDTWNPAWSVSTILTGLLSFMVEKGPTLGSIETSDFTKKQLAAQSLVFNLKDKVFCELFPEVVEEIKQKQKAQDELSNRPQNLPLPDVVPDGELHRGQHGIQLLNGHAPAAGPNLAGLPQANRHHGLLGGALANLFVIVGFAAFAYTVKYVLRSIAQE
UniProt Q6P3E7: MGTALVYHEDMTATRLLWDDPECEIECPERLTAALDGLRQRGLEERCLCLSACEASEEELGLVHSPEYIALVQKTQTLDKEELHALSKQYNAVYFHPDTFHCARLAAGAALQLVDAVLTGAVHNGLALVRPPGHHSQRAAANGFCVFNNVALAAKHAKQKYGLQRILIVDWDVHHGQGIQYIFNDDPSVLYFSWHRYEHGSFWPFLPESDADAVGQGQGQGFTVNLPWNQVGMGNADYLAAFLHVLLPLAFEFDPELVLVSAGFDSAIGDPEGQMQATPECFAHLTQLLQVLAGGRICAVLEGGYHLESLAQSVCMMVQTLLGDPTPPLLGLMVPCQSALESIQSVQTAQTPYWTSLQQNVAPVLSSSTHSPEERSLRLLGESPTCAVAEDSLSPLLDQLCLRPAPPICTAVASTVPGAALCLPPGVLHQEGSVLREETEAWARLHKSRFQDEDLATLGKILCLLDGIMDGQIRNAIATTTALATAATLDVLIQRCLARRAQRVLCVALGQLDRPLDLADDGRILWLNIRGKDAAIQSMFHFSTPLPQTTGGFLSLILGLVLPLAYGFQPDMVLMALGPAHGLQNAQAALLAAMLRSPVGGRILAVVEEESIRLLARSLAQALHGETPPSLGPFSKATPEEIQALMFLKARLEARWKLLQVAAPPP
UniProt Q6NV83: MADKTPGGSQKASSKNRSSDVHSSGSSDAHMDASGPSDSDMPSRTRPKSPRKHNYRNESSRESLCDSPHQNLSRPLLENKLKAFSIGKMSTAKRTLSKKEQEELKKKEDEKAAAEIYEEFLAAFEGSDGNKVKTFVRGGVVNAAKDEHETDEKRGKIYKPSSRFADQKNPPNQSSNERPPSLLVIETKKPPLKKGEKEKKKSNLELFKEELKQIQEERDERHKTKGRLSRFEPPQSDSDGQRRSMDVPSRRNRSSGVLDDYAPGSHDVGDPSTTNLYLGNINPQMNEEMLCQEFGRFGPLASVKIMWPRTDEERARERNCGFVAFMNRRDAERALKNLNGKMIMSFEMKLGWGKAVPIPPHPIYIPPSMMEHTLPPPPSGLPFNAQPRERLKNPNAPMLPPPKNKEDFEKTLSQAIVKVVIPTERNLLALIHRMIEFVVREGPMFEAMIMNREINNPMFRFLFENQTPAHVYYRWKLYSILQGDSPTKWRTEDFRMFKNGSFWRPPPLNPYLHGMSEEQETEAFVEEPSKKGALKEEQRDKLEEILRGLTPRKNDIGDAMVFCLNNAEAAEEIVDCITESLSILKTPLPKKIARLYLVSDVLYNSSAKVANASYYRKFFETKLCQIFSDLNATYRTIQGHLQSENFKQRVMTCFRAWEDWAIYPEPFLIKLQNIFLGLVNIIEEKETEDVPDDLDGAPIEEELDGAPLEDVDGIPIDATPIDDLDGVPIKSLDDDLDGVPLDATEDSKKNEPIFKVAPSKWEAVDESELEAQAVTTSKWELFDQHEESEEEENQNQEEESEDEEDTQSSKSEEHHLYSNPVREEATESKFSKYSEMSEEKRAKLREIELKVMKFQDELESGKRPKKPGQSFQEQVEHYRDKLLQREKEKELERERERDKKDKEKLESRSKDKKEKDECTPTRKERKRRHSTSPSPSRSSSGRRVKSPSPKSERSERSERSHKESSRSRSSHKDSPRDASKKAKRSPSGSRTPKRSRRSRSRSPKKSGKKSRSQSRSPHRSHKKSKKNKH
UniProt Q6PAQ4: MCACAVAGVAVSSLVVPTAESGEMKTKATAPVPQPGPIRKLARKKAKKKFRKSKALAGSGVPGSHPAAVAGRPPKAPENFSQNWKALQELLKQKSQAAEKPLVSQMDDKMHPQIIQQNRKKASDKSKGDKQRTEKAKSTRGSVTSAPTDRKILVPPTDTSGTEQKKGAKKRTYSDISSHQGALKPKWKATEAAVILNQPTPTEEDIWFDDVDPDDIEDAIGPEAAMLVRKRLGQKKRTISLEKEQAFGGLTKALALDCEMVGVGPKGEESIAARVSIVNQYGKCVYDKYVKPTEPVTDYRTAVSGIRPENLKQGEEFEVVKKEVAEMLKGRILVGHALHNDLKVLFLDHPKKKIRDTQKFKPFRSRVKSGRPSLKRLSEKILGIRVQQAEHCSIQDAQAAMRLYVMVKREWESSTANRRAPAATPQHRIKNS
UniProt Q6GQW0: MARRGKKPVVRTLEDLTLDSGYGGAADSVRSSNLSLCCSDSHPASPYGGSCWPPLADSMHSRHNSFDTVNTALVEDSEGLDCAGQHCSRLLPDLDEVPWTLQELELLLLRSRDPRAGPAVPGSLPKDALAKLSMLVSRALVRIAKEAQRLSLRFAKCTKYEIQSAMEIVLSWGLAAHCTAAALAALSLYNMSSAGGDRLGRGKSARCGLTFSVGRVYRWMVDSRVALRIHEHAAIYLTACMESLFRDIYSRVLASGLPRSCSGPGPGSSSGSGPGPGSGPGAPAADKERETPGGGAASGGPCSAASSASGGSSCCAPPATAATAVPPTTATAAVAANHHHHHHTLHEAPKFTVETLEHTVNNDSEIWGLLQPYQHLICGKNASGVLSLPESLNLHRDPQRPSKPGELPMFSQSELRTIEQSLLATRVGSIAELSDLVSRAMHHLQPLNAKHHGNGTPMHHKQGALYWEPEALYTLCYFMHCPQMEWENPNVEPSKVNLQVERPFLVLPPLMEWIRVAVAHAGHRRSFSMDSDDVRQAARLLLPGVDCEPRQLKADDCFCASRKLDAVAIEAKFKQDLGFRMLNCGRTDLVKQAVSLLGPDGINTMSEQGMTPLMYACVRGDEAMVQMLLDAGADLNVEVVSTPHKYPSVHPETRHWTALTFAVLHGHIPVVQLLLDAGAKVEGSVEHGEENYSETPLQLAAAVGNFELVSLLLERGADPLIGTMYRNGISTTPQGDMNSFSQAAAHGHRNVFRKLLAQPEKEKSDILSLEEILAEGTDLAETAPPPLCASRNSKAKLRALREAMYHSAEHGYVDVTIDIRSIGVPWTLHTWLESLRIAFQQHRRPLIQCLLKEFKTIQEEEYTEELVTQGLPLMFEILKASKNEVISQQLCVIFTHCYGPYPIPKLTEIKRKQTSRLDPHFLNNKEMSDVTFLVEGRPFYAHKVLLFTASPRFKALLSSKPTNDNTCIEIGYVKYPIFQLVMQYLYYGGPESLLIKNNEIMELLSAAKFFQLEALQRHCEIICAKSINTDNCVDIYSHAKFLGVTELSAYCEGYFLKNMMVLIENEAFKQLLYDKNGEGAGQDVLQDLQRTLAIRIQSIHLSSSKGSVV
UniProt Q6KAR6: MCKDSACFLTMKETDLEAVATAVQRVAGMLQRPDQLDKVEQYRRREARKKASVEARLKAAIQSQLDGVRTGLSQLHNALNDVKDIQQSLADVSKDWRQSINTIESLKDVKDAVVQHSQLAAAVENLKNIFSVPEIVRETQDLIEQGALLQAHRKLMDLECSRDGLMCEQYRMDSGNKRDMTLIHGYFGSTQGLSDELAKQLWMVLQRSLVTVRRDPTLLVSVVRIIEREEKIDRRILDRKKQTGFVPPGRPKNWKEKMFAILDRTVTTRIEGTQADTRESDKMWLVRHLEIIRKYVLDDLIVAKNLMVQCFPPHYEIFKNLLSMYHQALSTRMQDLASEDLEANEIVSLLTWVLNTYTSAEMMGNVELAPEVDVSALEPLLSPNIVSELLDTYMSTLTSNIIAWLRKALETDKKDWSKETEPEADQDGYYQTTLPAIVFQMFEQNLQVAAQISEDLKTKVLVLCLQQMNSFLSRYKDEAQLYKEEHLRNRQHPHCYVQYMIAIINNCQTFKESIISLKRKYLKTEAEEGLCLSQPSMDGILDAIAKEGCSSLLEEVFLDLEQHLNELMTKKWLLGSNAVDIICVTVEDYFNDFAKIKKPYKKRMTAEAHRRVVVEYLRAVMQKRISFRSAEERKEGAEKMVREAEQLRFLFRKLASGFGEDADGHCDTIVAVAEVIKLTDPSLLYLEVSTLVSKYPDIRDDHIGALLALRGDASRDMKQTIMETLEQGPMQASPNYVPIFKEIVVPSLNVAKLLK

Compound in the experiment: CN[C@@H]1C[C@H]2O[C@@](C)([C@@H]1OC)n1c3ccccc3c3c4c(c5c6ccccc6n2c5c31)C(=O)NC4 [staurosporine]
The experiment can be described thus: log2 fold change of tryptic peptide abundance, ligand vs vehicle (limited proteolysis) (log2 ratio); higher = more trypsin-susceptible (destabilized). The note with it: ligand concentration: 20 uM; sample: mouse liver crude lysate; replicate design: treated separately.

The list shows a part of the results. Small differences around the control level are noise.

In the case of “UniProt Q6NS59 (peptide sequence: SAVPDCHLSDSK, peptide start residue: 858)”, the log2 fold change is -0.169.
Turning to “UniProt Q6P3D0 (peptide sequence: ELREELGEAMSAFRVER, peptide start residue: 76)”, the log2 fold change is -0.44.
With “UniProt Q6AXC6 (peptide sequence: GLAGFQQFLK, peptide start residue: 527)”, the log2 fold change was -0.35.
As for “UniProt Q6NZR5 (peptide sequence: DVAVVEGGLR, peptide start residue: 990)”, the log2 fold change amounted to 0.183.
For “UniProt Q6PD21 (peptide sequence: TKSPPQPPRPDYR, peptide start residue: 16)” the value was -0.22.
For “UniProt Q6PAR5 (peptide sequence: WIVSQMYK, peptide start residue: 282)” the value was 0.459; for “UniProt Q6A026 (peptide sequence: SQDVDQLR, peptide start residue: 1017)”, 0.195.
For “UniProt Q6P073 (peptide sequence: LKQDYLR, peptide start residue: 17)” the value was -0.0145; for “UniProt Q6PHS6 (peptide sequence: ATYGDTINRK, peptide start residue: 807)”, 0.368; for “UniProt Q6P3E7 (peptide sequence: QYNAVYFHPDTFHCAR, peptide start residue: 89)”, -0.392.
“UniProt Q6RHR9 (peptide sequence: GLKEGDLIVEVNKK, peptide start residue: 671)”: the log2 fold change was -0.934.
For “UniProt Q6TCG2 (peptide sequence: SPPAATTKPLLR, peptide start residue: 33)” the value was 0.297.
For “UniProt Q6P4T0 (peptide sequence: NQILPDAHKDHALK, peptide start residue: 1893)” the value was -0.299; for “UniProt Q6NV83 (peptide sequence: MIEFVVR, peptide start residue: 434)”, 0.16.
For “UniProt Q6PAQ4 (peptide sequence: TYSDISSHQGALKPK, peptide start residue: 172)” the value was -0.213; for “UniProt Q6GQW0 (peptide sequence: LDPHFLNNK, peptide start residue: 833)”, -0.174.
As to “UniProt Q6NSQ7 (peptide sequence: KHLFWEEETK, peptide start residue: 223)”, the log2 fold change came to 0.361.
“UniProt Q6KAR6 (peptide sequence: NLLSMYHQALSTR, peptide start residue: 320)”: the log2 fold change was determined as 0.22.
